Experimental data as given in paper PMC9893415.

Biological target: ABI4 fused to the C-terminal YFP fragment
Experiment: split reporter; split-YFP fusions (YFP^n and YFP^c) co-expressed by Agrobacterium infiltration in N. benthamiana leaves; confocal microscopy after 2-3 days; also imaged 2 hours after spraying with eH2O2

B1: NOVEL CYS-RICH RECEPTOR KINASE (NCRK) fused to the N-terminal YFP fragment (receptor, UniProt Q8VYY5 24-565)
chain: GVSNYTCTCFSSGNRSDILESNCSTSCNCRPDRDQWVCLCPANGFPVIAIGGSNSSCFTSCNCSAGATKSSKKQYLSRKLVIVILLFCGVLISLAFLASMICYICRKDKFSGQTPSVSSDRESSWHSSANLINRKSSVSQSKISISSSVAGCFFQNASLFCVSKPETIHGAIFQFSYTELEQATNKFSSNSVIGHGGSSCVYRGQLKDGKTAAIKRLNTPKGDDTDTLFSTEVELLSRLHHYHVVPLIGYCSEFHGKHAERLLVFEYMSYGSLRDCLDGELGEKMTWNIRISVALGAARGLEYLHEAAAPRILHRDVKSTNILLDENWHAKITDLGMAKCLSSDGLQSGSSSPTTGLQGTFGYFAPEYAIAGCASQMSDVFSFGVVLLELITGRKPIQKPSNNKGEESLVIWAVPRLQDSKRVIEELPDPRLNGKFAEEEMQIMAYLAKECLLLDPESRPTMREVVQILSTITPDTSSRRRNFPINYLFQSNEKKKESKVGWSRGGSKSGQEEETVDLTEPRFESFCLPNVKPVLLEPSAHI
- binding: no binding

Results are given in words; binding and its absence hold for the method and conditions named. Binding seen in cells or lysates may run through a third protein. Tags and fused reporters may be left off the sequences shown.
